Values from PubChem BioAssay AID504791 (Drosophila RNAi Screening Center, 2011).
In all, the deposit lists about 23,000 reagents; below is a random part of those with a known target gene and a result. Over the whole deposit, 199 (0.86%) got an active call. 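Plate-scaled ratios behind the calls are not deposited; printed light signals are raw; many rows marked increased or decreased are still called inactive.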 The numbers tell different reagents against one gene apart. No sequences are given here. Not given: the direction of the score.

- Assay: 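Genes whose knock-down strengthens or weakens small-RNA reporter silencing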 (primary screen)
- Cell system: Drosophila S2-derived reporter cells
- Reagents: long dsRNA against Drosophila genes, about 150-250 ng dsRNA per well (siRNA assay); about 80-120 ng (miRNA assay)
- Timing: about 5 days (siRNA assay); about 4 days (miRNA assay)
- Treatment: copper sulfate induction of reporters: 25 µM (siRNA assay); 200 mM stated (miRNA assay), 1-2 days before reading
- Detection: 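Per-well ratio of Renilla over firefly light, expressed relative to that plate's average ratio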
- Units: stable assay Renilla, run 1 in luminescence; stable assay firefly, run 1 in luminescence
- Hit rule: 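First-pass picks had plate-scaled ratios over 1.5 for the siRNA assay, over 1.6 for the miRNA assay, or under 0.6; two distinct dsRNAs had to score alike on retest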

With enc, what does the deposit list?
stable assay Renilla, run 1: 6698; stable assay firefly, run 1: 4.23e5; activity call: inactive

With CG8562, what was measured?
stable assay Renilla, run 1: 6387; stable assay firefly, run 1: 3.90e5; activity call: inactive

With Agpat2, how do the results read?
stable assay Renilla, run 1: 48749; stable assay firefly, run 1: 1.25e6; activity call: inactive

With BckdhB, how do the results read?
stable assay Renilla, run 1: 5104; stable assay firefly, run 1: 3.58e5; activity call: inactive

What is on record for CG33060?
stable assay Renilla, run 1: 8339; stable assay firefly, run 1: 3.91e5; activity call: inactive

How did the screen score daed?
stable assay Renilla, run 1: 10747; stable assay firefly, run 1: 5.61e5; activity call: inactive

How did the screen score Tsp42Ej?
stable assay Renilla, run 1: 1.74e5; stable assay firefly, run 1: 1.48e6; activity call: inactive

How did the screen score Membrin?
stable assay Renilla, run 1: 5938; stable assay firefly, run 1: 3.27e5; activity call: inactive

With CG1314, what was measured?
stable assay Renilla, run 1: 8454; stable assay firefly, run 1: 4.36e5; activity call: inactive

How did the screen score Mmp2 #1?
stable assay Renilla, run 1: 6759; stable assay firefly, run 1: 3.58e5; activity call: inactive

Which result is listed for Mmp2 #2?
stable assay Renilla, run 1: 9108; stable assay firefly, run 1: 5.82e5; activity call: inactive

Reformatted: entries from further up.
{"gene": "CG8562", "dsRNA no.": 1, "stable assay Renilla, run 1": 6387, "stable assay firefly, run 1": 3.90e5, "activity call": "inactive"}
{"gene": "Agpat2", "dsRNA no.": 1, "stable assay Renilla, run 1": 48749, "stable assay firefly, run 1": 1.25e6, "activity call": "inactive"}
{"gene": "BckdhB", "dsRNA no.": 1, "stable assay Renilla, run 1": 5104, "stable assay firefly, run 1": 3.58e5, "activity call": "inactive"}

Continued:
What is on record for CG10576?
stable assay Renilla, run 1: 8538; stable assay firefly, run 1: 5.27e5; activity call: inactive

Which result is listed for CrebA?
stable assay Renilla, run 1: 7710; stable assay firefly, run 1: 3.05e5; activity call: inactive

How did the screen score CG7368 #1?
stable assay Renilla, run 1: 3907; stable assay firefly, run 1: 4.85e5; activity call: inactive

With CG7368 #2, what was measured?
stable assay Renilla, run 1: 3587; stable assay firefly, run 1: 3.85e5; activity call: inactive

What did the screen give for CG9503 #1?
stable assay Renilla, run 1: 5343; stable assay firefly, run 1: 4.21e5; activity call: inactive

With CG9503 #2, what was measured?
stable assay Renilla, run 1: 9254; stable assay firefly, run 1: 5.59e5; activity call: inactive

How did the screen score SsRbeta?
stable assay Renilla, run 1: 7588; stable assay firefly, run 1: 2.87e5; activity call: inactive

What is on record for CG11034 #1?
stable assay Renilla, run 1: 7283; stable assay firefly, run 1: 3.88e5; activity call: inactive

With CG11034 #2, what was measured?
stable assay Renilla, run 1: 8528; stable assay firefly, run 1: 5.20e5; activity call: inactive
